Data from PubChem BioAssay (Tox21).
Where “and” joins values, the source holds several entries; their conditions need not be identical. Identical values can stand only once. The inconclusive results got no clear call from the source; some entries with a clear call stand among them for comparison. For some of these results: Potencies of inconclusive entries are doubtful fits and often do not repeat. Some structures have more than one record in an assay (separate samples or runs), and their calls can disagree. Calls of active or inactive are those of the source. Unless noted, calls follow the shape of the full dose curve.

Chains of the proteins cited; added tags and fusions are not shown. Lines headed by an entry give the natural chain unless they say otherwise; changes in a name come on top.
UniProt P28223, whole entry, looked up: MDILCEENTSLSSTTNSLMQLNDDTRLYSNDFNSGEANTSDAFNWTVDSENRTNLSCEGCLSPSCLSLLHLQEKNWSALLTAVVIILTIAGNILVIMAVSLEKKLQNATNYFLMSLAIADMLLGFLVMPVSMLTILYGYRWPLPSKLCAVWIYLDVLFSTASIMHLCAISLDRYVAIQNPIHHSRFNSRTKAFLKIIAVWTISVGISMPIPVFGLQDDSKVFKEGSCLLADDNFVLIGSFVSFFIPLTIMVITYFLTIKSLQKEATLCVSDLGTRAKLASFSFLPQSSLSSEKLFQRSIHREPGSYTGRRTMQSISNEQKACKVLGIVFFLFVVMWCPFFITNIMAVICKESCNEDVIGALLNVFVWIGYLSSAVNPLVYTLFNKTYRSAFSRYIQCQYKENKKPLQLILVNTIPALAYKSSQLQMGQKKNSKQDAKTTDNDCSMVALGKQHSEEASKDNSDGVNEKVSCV
UniProt P14416, whole entry, looked up: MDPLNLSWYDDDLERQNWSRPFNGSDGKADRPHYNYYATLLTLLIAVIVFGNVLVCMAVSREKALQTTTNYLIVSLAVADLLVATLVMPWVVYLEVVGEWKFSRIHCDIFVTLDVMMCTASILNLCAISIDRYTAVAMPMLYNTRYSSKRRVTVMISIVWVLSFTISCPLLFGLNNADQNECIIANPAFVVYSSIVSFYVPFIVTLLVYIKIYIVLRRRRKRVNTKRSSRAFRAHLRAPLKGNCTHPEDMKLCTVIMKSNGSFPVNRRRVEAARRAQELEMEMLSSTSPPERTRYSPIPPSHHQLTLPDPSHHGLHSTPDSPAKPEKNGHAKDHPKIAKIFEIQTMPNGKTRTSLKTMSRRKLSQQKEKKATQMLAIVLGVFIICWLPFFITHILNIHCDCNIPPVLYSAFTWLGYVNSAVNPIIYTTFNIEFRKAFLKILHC
UniProt P11229: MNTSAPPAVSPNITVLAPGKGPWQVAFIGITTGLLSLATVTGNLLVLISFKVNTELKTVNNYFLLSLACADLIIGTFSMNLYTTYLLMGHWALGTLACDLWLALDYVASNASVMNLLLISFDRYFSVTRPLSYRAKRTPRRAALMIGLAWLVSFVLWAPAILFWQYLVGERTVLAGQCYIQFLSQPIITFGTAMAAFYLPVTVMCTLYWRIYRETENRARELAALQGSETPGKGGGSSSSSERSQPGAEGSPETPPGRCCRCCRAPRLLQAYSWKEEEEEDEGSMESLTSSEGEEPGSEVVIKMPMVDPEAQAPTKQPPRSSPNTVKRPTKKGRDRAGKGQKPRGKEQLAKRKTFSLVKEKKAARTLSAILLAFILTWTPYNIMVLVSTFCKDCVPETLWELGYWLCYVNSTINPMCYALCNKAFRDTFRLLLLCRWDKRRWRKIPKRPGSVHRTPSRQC

Experiments:
[1] = Nuclear factor erythroid 2-related factor 2/antioxidant responsive element (Nrf2/ARE) small molecule agonists: luciferase reporter gene qHTS assay in human keratinocytes (AID 1919969); also: nearly all actives have a fitted effect of over 35% in size; also: potency is read from the fitted curve at half-maximal effect
[2] = p53 small molecule agonists, cell-based qHTS assay (AID 1963582; active = well fitted activation curve with a large enough effect in the signal ratio in the repeat runs, not every such curve was filed as active; inconclusive = weak or mixed curves; the % refers to the signal ratio; also: potency is read from the fitted curve at half-maximal effect; as to activation: % is scaled to controls: 0 for no effect and ±100 for the full control effect); settings: HCT-116 p53RE-bla reporter, beta-lactamase FRET ratio, 16 h; activation: at 66 µM (top of the series) unless noted
Procedure, shortened: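 p53RE-bla reporter cells, compounds added in DMSO after 5 h plating, incubated 16 h at 37 C. Beta-lactamase read via 2 h room-temperature LiveBLAzer B/G FRET substrate, fluorescence intensity.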

[3] = molecular target: 5-hydroxytryptamine receptor 2A (Homo sapiens) (UniProt P28223); experiment: 5-hydroxytryptamine receptor 2A (HTR2A) small molecule agonists, cell-based qHTS assay (AID 1963587); settings: HTR2A-CHO cells, calcium flux fluorescence, agonist mode; activation: at 76.8 µM (top of the series); also: potency is read from the fitted curve at half-maximal effect; nearly all actives have a fitted effect of over 30% in size
Procedure, shortened: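 CHO cells stably expressing human HTR2A, plated 18 h, loaded with calcium dye 1 h at 37 C. Agonist mode: compounds added and intracellular calcium fluorescence recorded kinetically for 2 min at 1 sec intervals.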

[4] = cAMP Responsive Elements (CRE) small molecule antagonists, cell-based qHTS assay (AID 1963591; active = well fitted inhibition curve with a large enough effect in the signal ratio in the repeat runs, not every such curve was filed as active; inconclusive = weak or mixed curves, or effect the other way; the % refers to the signal ratio; also: potency is read from the fitted curve at half-maximal effect; as to activity change, negative = inhibition: % is scaled to controls: 0 for no effect and ±100 for the full control effect); settings: CRE-bla HEK293T, beta-lactamase FRET ratio; activity change, negative = inhibition: at 92.4 µM (top of the series) unless noted
Procedure, shortened: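 CRE-bla HEK293T cells plated 18 h, then given compound plus NKH477 at 0.25 uM final for 3 h at 37C. Beta-lactamase reporter read with LiveBLAzer B/G FRET substrate after 2 h at room temperature.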

[5] = molecular target: Beta-2 adrenergic receptor (Homo sapiens) (UniProt P07550); experiment: Adrenergic beta2 receptor (ADRB2) small molecule agonists, cell-based qHTS assay (AID 1963593); settings: CHO-ADRB2 cells, cAMP HTRF, 30 min; also: potency is read from the fitted curve at half-maximal effect;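 as to activation: CHO cells stably overexpressing human ADRB2; % is scaled to controls: 0 for no effect and ±100 for the full control effect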
Procedure, shortened: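 CHO cells stably over-expressing ADRB2 were plated overnight at 37C, then dosed with compounds plus a stimulation mix containing 100uM IBMX and 25uM Ro-20-1724 for 0.5hr at room temperature. cAMP was measured by HTRF competition, 1hr.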

[6] = molecular target: 5-hydroxytryptamine receptor 2A (Homo sapiens) (UniProt P28223); experiment: 5-hydroxytryptamine receptor 2A (HTR2A) small molecule antagonists, cell-based qHTS assay (AID 1963586); also: nearly all actives have a fitted effect of over 45% in size; also: potency is read from the fitted curve at half-maximal effect; as to activity, negative = inhibition: % is scaled to controls: 0 for no effect and ±100 for the full control effect
Procedure, shortened: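 Antagonist-mode intracellular calcium assay: DOI (4 nM) added after 5 min compound pre-incubation at room temperature to dye-loaded HTR2A-CHO cells. Fluorescence followed for 3 min, sampled every second.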

[7] = cAMP Responsive Elements (CRE) small molecule agonists, cell-based qHTS assay (AID 1963590); settings: CRE-bla HEK293T, beta-lactamase FRET ratio, 3 h; activation: at 92.4 µM (top of the series) unless noted; also: potency is read from the fitted curve at half-maximal effect
Procedure, shortened: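 CRE-bla HEK 293T cells, 2,000/well in DMEM with 10% dialyzed FBS and 25 mM HEPES, pre-incubated 18 h at 37 C, then exposed to compound 3 h at 37 C. Beta-lactamase reporter read with LiveBLAzer B/G FRET substrate after 2 h at room temperature.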

[8] = p53 small molecule agonists, cell-based qHTS assay: qHTS cell viability counter screen (AID 1963581); also: nearly all actives have a fitted effect of over 45% in size; also: potency is read from the fitted curve at half-maximal effect
Procedure, shortened: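 p53RE-bla HCT-116 cells, compounds added 5 h after plating and incubated 16 h at 37 C. Cytotoxicity measured in the same wells as intracellular ATP by CellTiter-Glo luminescence after 30 min at room temperature.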

[9] = molecular target: Beta-2 adrenergic receptor (Homo sapiens) (UniProt P07550); experiment: Adrenergic beta2 receptor (ADRB2) small molecule antagonists, cell-based qHTS assay (AID 1963592); settings: CHO-ADRB2 cells, isoproterenol-stimulated cAMP HTRF ratio, 0.5 h; activity change, negative = inhibition: at 92.4 µM (top of the series) unless noted; also: % is scaled to controls: 0 for no effect and ±100 for the full control effect; nearly all actives have a fitted effect of over 50% in size
Procedure, shortened: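 Cells (CHO, stable ADRB2 overexpression) incubated 18-20hr at 37C; compounds added from DMSO; agonist mix (1nM isoproterenol, 100uM IBMX, 25uM Ro-20-1724) added; 0.5hr RT; d2-cAMP and anti-cAMP-cryptate added; 1hr RT; 665/615 nm read.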

[10] = molecular target: D(2) dopamine receptor (Homo sapiens) (UniProt P14416); experiment: Dopamine D2 receptor (DRD2) small molecule antagonists, cell-based qHTS assay (AID 1963595; active = well fitted inhibition curve with a large enough effect in the signal ratio in the repeat runs, with a control signal flat; inconclusive = weak or mixed curves, or effect the other way; the % refers to the signal ratio; also: potency is read from the fitted curve at half-maximal effect); settings: HEK293-DRD2 cAMP HTRF antagonist mode; activity change, negative = inhibition: at 92.4 µM (top of the series) unless noted
Procedure, shortened: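 Stable D2 receptor HEK293 line, 24 h after seeding. Compound preincubated 10 min, then quinpirole (12 nM) with forskolin analogue NKH477 (200 nM), 30 min, room temperature. Detection by time-resolved FRET of cAMP.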

[11] = molecular target: Muscarinic acetylcholine receptor M1 (Homo sapiens) (UniProt P11229); experiment: Cholinergic receptor muscarinic 1 (CHRM1) small molecule antagonists, cell-based qHTS assay (AID 1963588); also: potency is read from the fitted curve at half-maximal effect; nearly all actives have a fitted effect of over 40% in size
Procedure, shortened: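 CHRM1-CHO calcium-flux assay, antagonist mode. Cells were seeded 18 h, dye-loaded 1 h at 37 C and given compound for 5 min at RT, then acetylcholine was added at 50nM. FDSS fluorescence was read 3 min; 15 concentrations, three runs.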

[12] = activation: at 92.4 µM (top of the series) unless noted

## N=C(N)[Se]
[1]
  Potency: inconclusive: 68.8 µM [activator]
[2]
  Potency: inconclusive: 1.03 µM [falling, single point]
[3]
  Potency: inconclusive: 55.1 µM [activator, single point]
[4]
  Potency: inactive
[5]; [12]
  Potency: inactive

## CC1(C)[C@H](/C=C2\CCSC2=O)[C@@H]1C(=O)OCc1coc(Cc2ccccc2)c1
[1]
  Potency: active: 61.1 µM
[2]
  Potency: inactive
[6]
  Potency: active: 2.65 µM
[7]
  Potency: inconclusive: 30.6 µM [rising, partial curve]
[4]
  Potency: inconclusive: 43.3 µM [activator, partial curve]
[5]; [12]
  activation: inconclusive: -23.2%

## CCOP(=O)(N=C1SCCS1)OCC
[1]
  Potency: inactive
[8]
  Potency: inactive
[5]; [12]
  Potency: inactive

## c1ccc(C2CO2)cc1 (stereo not given)
[1]
  Potency: inactive
[8]
  Potency: inconclusive: 18.2 µM [rising, single point]
[6]
  Potency: active: 4.8 nM and inactive
[9]
  activity change, negative = inhibition: inconclusive: -0.745%
[5]; [12]
  activation: inconclusive: 9.41%
[5]; at 92.4 µM (top of the series)
  activation: inactive: 27%

## CC(O)C#N (stereo not given)
[1]
  Potency: active: 61.1 µM
[2]
  Potency: inconclusive: 0.0913 µM [falling, full curve, poor fit]
[7]
  Potency: inactive
[5]; [12]
  Potency: inactive

## BrCCCCCCBr
[1]
  Potency: inconclusive: 61.1 µM [activator, partial curve, poor fit]
[8]
  Potency: inactive
[5]; [12]
  Potency: inactive
[10]
  Potency: inconclusive: 77 µM [activator]

## CCCCCCCCCCCC(=O)O
[1]
  Potency: inconclusive: 68.6 µM [activator, single point]
[8]
  Potency: inconclusive: 74.1 µM [rising, single point]
[6]
  Potency: inconclusive: 26.6 µM [inhibitor, partial curve]
[3]
  Potency: inconclusive: 39 µM [activator, partial curve]
[5]; [12]
  activation: inconclusive: -1.3%

## O=C1C(=O)c2cccc3cccc1c23
[1]
  Potency: active: 27.3 µM
[8]
  Potency: inconclusive: 25.7 µM [rising, partial curve]
[2]
  Potency: inconclusive: 20.4 µM [rising, full curve]
[7]
  Potency: inconclusive: 27.3 µM [fluorescent]
[5]; [12]
  activation: inconclusive: 6.68%

## CC(Oc1ccc(Cl)cc1Cl)C(=O)O (stereo not given)
[1]
  Potency: inconclusive: 68.8 µM [activator, single point]
[8]
  Potency: inconclusive: 0.325 µM [cytotoxic, partial curve, poor fit]
[2]
  Potency: inconclusive: 18.3 µM [fluorescent, partial curve] and inactive
[7]
  Potency: inconclusive: 30.7 µM [rising, partial curve] and inconclusive: 54.4 µM [rising, partial curve]
[4]
  activity change, negative = inhibition: inconclusive: 13.2% and inconclusive: 15%
[9]
  activity change, negative = inhibition: inconclusive: 1.69%
[5]; [12]
  Potency: inconclusive: 274 nM [inhibitor, partial curve, poor fit] and inactive

## COC1=CC(=O)O[C@@H](CCc2ccccc2)C1
[1]
  Potency: inactive
[2]
  Potency: inconclusive: 21.3 µM [rising, partial curve]
[7]
  Potency: inconclusive: 28.4 µM [rising, partial curve]
[5]; [12]
  Potency: inconclusive: 714 nM [inhibitor, partial curve, poor fit]

## CON(C)C(=O)Nc1ccc(Br)c(Cl)c1
[1]
  Potency: inconclusive: 15.4 µM [activator, full curve, poor fit]
[8]
  Potency: inconclusive: 51.3 µM [rising, single point]
[5]; [12]
  activation: inconclusive: -21.7%

## O=C1CCCCC1Cl (stereo not given)
[1]
  Potency: inconclusive: 27.6 µM [activator, single point]
[2]
  Potency: inconclusive: 0.146 µM [falling, partial curve, poor fit]
[7]
  Potency: inactive
[5]; [12]
  activation: inconclusive: 8.34%

## Cc1ccc2nc3sc(=O)sc3nc2c1
[1]
  Potency: active: 1.64 µM
[2]
  Potency: inconclusive: 3.87 µM [rising, full curve, poor fit]
[6]
  activity, negative = inhibition: inactive: 8.83% [at 12.7 µM]
[7]
  Potency: inconclusive: 11.6 µM [rising, partial curve, poor fit]
[4]
  activity change, negative = inhibition: inactive: 1.33% [at 18.9 µM]
[5]; [12]
  Potency: inconclusive: 580 nM [inhibitor, single point]

## CCCC[N+](CCCC)(CCCC)CCCC
[1]
  Potency: inactive
[2]
  Potency: inconclusive: 4.57 µM [rising, full curve, poor fit]
[7]
  Potency: inconclusive: 34.3 µM [rising, partial curve]
[5]; [12]
  Potency: inconclusive: 193 nM [inhibitor, full curve, poor fit]

## CSC1=N[C@@](C)(c2ccccc2)C(=O)N1Nc1ccccc1
[1]
  Potency: inactive
[8]
  Potency: inactive
[2]
  Potency: inconclusive: 1.62 µM [rising, full curve, poor fit]
[11]
  Potency: inconclusive: 29.8 µM [inhibitor, partial curve, poor fit]
